Results are given in words; binding and its absence hold for the method and conditions named. Binding seen in cells or lysates may run through a third protein. Here binding means that the protein was enriched with, or labelled near, the bait; the list need not be complete. Tags and fused reporters may be left off the sequences shown.
T1: HA-tagged bHLH107 (35S::bHLH107-HA in Col-0) (Arabidopsis) (UniProt Q9LET0)
T1 sequence: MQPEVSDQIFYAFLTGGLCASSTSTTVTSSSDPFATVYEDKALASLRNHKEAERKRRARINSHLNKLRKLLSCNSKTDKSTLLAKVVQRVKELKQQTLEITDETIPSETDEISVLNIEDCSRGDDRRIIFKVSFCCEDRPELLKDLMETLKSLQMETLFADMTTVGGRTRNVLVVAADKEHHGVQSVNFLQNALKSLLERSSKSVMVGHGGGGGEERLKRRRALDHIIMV

T2: HA-tagged bHLH107 (35S::bHLH107-HA in Col-0) (Arabidopsis), Q9LET0
T2 chain: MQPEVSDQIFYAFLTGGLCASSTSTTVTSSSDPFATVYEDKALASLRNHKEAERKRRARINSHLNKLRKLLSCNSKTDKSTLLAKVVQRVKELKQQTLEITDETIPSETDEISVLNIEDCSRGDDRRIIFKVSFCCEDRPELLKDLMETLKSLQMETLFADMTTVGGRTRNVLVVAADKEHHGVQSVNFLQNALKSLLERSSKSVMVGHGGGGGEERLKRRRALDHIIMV


How the values were obtained:
[1] = target: T1, HA-tagged bHLH107 (35S::bHLH107-HA in Col-0) (Arabidopsis); assay: affinity purification with mass spectrometry
[2] = target: T2, HA-tagged bHLH107 (35S::bHLH107-HA in …); assay: affinity purification with mass spectrometry; conditions: remark: other sources report otherwise

| binding [1] | binding [2] | Binder |
| --- | --- | --- |
| binds |  | GRF2 (14-3-3 protein), endogenous (protein, UniProt Q01525 1-259) MASGREEFVYMAKLAEQAERYEEMVEFMEKVSAAVDGDELTVEERNLLSVAYKNVIGARRASWRIISSIEQKEESRGNDDHVTAIREYRSKIETELSGICDGILKLLDSRLIPAAASGDSKVFYLKMKGDYHRYLAEFKTGQERKDAAEHTLAAYKSAQDIANAELAPTHPIRLGLALNFSVFYYEILNSPDRACNLAKQAFDEAIAELDTLGEESYKDSTLIMQLLRDNLTLWTSDMQDDAADEIKEAAAPKPTEEQQ |
|  | binds | GRF5 (14-3-3 protein), endogenous, P42645 1-268 (protein) MSSDSSREENVYLAKLAEQAERYEEMVEFMEKVAKTVETEELTVEERNLLSVAYKNVIGARRASWRIISSIEQKEDSRGNSDHVSIIKDYRGKIETELSKICDGILNLLEAHLIPAASLAESKVFYLKMKGDYHRYLAEFKTGAERKEAAESTLVAYKSAQDIALADLAPTHPIRLGLALNFSVFYYEILNSSDRACSLAKQAFDEAISELDTLGEESYKDSTLIMQLLRDNLTLWTSDLNDEAGDDIKEAPKEVQKVDEQAQPPPSQ |
| binds |  | GRF1 (14-3-3 protein), endogenous (protein, UniProt P42643 1-267) MATPGASSARDEFVYMAKLAEQAERYEEMVEFMEKVAKAVDKDELTVEERNLLSVAYKNVIGARRASWRIISSIEQKEESRGNDDHVSLIRDYRSKIETELSDICDGILKLLDTILVPAAASGDSKVFYLKMKGDYHRYLAEFKSGQERKDAAEHTLTAYKAAQDIANSELAPTHPIRLGLALNFSVFYYEILNSPDRACNLAKQAFDEAIAELDTLGEESYKDSTLIMQLLRDNLTLWTSDMQDDVADDIKEAAPAAAKPADEQQS |
